# Assay results reported in publication PMC8693265, “Investigation of PAS and CNBH domain interactions in hERG channels and effects of long-QT syndrome-causing mutations with surface plasmon resonance” (The Journal of Biological Chemistry, 2021).
# Sequences of proteins named here, by UniProt entry; tags and fusion partners are left off. Residues count along the entry.
# hERG PAS domain (residues 2-134) (Q12809, residues 2-134): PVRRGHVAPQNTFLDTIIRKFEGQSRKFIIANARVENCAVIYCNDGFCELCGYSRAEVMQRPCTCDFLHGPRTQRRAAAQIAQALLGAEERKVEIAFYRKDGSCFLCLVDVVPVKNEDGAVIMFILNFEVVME
# hERG CNBH domain (residues 734-867) (Q12809, residues 734-867): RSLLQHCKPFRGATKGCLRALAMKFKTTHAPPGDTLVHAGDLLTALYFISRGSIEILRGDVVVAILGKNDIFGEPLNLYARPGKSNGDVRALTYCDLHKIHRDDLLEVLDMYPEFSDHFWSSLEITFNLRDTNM
# These are yes or no findings as the source states them, for the method shown.
# Biological target: hERG CNBH domain (residues 734-867) (human) (UniProt Q12809)
# Assay: SPR; free PAS domain at 3 uM over CNBH or PAS domain immobilised on a CM5 chip; 600 mM KCl, 1 mM TCEP, 10% glycerol, 0.05% Tween 20, 30 mM HEPES pH 7.5 (series 150, 300, 600 mM KCl); both purified
substance,measurement,value
hERG PAS domain (residues 2-134) (from UniProt Q12809 2-134) (domain or fragment),binding,no binding (condition: 600 mM KCl (PAS at 3 μM))
